The record followed here is patent publication US7754689B2, “Finger-1 peptide analogs of the TGF-β superfamily” (Wyeth LLC, priority 2006, dated 2010).

Results are given in words; binding and its absence hold for the method and conditions named. Some entries that bind do so weakly or less than the wild type.

Assay [1] deals with T1, BMP-12 (UniProt Q7Z4P5 322-450, limits assumed).
T1 construct: also called BMP12/GDF7
T1 sequence (looked up): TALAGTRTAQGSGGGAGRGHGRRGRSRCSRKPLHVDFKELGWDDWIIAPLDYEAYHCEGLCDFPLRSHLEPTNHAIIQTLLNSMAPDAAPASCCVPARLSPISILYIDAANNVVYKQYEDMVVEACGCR
In words: affinity chromatography, immobilised peptide.

The target of another assay is T2, BMP-3 (UniProt P12645).
T2 sequence (looked up): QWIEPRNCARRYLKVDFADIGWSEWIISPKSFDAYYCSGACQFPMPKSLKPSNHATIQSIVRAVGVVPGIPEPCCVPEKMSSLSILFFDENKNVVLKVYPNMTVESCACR
In words: affinity chromatography, immobilised peptide.

The target in another assay is T3, GDF-9 (UniProt O60383).
T3 sequence (looked up): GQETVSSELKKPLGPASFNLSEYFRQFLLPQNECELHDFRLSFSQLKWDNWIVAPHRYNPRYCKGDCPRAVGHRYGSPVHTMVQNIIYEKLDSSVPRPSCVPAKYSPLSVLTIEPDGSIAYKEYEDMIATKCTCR
In words: affinity chromatography, immobilised peptide.

Assay [2] concerns the target T1, BMP-12. The assay can be described thus: peptide resin, filter plate.

B1: wild-type BMP-12 finger 1 peptide (…) (peptide)
peptide: KELGWDDWIIAPLDYEAYHCEGLC
Take B1: the binding result with BMP-12 [1] and with BMP-3 was “binds” in each case.

B2: mutant of the BMP-2 finger 1 peptide (…) (peptide)
peptide: SDVGWNDWIVAPPGYHAFYCHGEK
modifications: linked to sepharose beads via a C-terminal lysine
Consider B2, for which the binding entry in the assay with BMP-12 [1], with BMP-3 and with GDF-9 was “binds” throughout.

B3: BMP2 N-trun peptide 750 (peptide)
peptide: SDVGWNDWIVAPPGYHAFYCHGEK
modifications: N-terminal acetyl (Ac-)
B3: the binding entry with BMP-12 [2] was “binds”.

B4: BMP2 N-trun 1S peptide 751 (peptide)
peptide: SDVGWNDWIVAPPGYHAFYSHGEK
modifications: N-terminal acetyl (Ac-)
In the case of B4, the binding result with BMP-12 [2] is recorded as “binds”.

B5: BMP5 peptide 748 (peptide)
peptide: RDLGWQDWIIAPEGYAAFYSDGEK
modifications: N-terminal acetyl (Ac-)
As to B5, the binding entry in the assay with BMP-12 [2] is recorded as “binds”.

B6: BMP2 Full peptide 747 (peptide)
peptide: LYVDFSDVGWNDWIVAPPGYHAFYSHGEK
modifications: N-terminal acetyl (Ac-)
As to B6, in the assay with BMP-12 [2], the binding result was “binds”.

B7: BMP12 N-trun_1S peptide 749 (peptide)
peptide: ELGWDDWIIAPLDYEAYHSEGLK
modifications: N-terminal acetyl (Ac-)
As to B7, the binding result in the assay with BMP-12 [2] was “binds”.
